Results: article PMC4569850
Results are given in words; binding and its absence hold for the method and conditions named. In cells and extracts the contact can be indirect. Binding calls can cover weak binding; strength is not graded here.

The chains behind the UniProt entries cited, without tags or fusion partners. Where a name states a change or a piece, a line headed by the entry shows the natural chain unless it says otherwise.
UniProt O35116: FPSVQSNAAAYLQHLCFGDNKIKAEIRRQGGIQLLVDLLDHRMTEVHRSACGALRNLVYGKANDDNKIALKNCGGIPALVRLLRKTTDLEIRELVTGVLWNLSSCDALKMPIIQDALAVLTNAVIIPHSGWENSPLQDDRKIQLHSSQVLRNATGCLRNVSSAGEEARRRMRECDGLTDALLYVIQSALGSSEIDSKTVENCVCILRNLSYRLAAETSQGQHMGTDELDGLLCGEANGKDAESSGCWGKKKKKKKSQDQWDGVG
UniProt Q2THW7: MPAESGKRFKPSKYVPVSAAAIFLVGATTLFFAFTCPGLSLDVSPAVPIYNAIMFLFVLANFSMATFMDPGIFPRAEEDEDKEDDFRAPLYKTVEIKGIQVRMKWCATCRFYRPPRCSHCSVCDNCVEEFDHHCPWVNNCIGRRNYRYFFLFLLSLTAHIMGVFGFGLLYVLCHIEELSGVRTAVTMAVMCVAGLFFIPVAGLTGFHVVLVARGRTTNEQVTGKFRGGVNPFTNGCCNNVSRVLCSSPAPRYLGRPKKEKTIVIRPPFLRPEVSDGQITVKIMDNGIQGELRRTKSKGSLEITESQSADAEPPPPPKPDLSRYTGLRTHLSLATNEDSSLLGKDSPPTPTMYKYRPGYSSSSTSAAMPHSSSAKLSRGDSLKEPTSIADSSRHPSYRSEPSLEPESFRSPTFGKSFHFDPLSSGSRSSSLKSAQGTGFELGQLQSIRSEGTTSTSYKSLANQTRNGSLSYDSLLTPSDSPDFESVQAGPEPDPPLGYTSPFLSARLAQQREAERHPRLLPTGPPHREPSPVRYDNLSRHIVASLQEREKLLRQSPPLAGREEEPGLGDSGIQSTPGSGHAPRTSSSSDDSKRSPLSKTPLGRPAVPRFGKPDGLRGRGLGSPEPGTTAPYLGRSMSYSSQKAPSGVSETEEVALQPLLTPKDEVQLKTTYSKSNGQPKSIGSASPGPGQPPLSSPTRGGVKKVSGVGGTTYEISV

Assays:
[1] = biological target: δ-catenin, endogenous in hippocampal neurons (rat (endogenous in hippocampal neurons)) (UniProt O35116); experiment: co-IP; 14-16 DIV rat hippocampal neurons, unstimulated or lysed at time points after cLTP (glycine) stimulation; lysates incubated overnight at 4 °C with the antibody, protein A/G-Sepharose, four washes with lysis buffer, immunoblot
[2] = biological target: DHHC5 (palmitoyl-acyl transferase), endogenous in hippocampal neurons (rat (endogenous in hippocampal neurons)) (UniProt Q2THW7); experiment: as above

How did the binding [1] turn out when “DHHC5 (palmitoyl-acyl transferase), endogenous in hippocampal neurons (from UniProt Q2THW7 1-715) (enzyme)” was run?
The binding was “binds”.

With “δ-catenin, endogenous in hippocampal neurons (from UniProt O35116)” as the substance, how does the binding [2] read?
Its binding is “binds”.
